Results reported in patent US10632169B2, “Methods of using GM604 in modulating ALS disease biomarkers leading to prognosis and therapeutic treatment for ALS disease” (Genervon Biopharmaceuticals, LLC, priority 2015, dated 2020).
Several values for one entry are separate records, joined by “and”; a condition that tells them apart may be missing. Identical values can stand only once. Entries after “also recorded” stand apart in the source; their conditions may differ. Not every detail of the peptide structures is certain; ends, links or a residue may be inferred. Residues, ends and D or L forms follow the SMILES beside them.

Protein sequences, listed by entry. Tags and fused reporters are not part of them. Residues count along the entry.
UniProt P06213, 28-758 limits assumed, species assumed: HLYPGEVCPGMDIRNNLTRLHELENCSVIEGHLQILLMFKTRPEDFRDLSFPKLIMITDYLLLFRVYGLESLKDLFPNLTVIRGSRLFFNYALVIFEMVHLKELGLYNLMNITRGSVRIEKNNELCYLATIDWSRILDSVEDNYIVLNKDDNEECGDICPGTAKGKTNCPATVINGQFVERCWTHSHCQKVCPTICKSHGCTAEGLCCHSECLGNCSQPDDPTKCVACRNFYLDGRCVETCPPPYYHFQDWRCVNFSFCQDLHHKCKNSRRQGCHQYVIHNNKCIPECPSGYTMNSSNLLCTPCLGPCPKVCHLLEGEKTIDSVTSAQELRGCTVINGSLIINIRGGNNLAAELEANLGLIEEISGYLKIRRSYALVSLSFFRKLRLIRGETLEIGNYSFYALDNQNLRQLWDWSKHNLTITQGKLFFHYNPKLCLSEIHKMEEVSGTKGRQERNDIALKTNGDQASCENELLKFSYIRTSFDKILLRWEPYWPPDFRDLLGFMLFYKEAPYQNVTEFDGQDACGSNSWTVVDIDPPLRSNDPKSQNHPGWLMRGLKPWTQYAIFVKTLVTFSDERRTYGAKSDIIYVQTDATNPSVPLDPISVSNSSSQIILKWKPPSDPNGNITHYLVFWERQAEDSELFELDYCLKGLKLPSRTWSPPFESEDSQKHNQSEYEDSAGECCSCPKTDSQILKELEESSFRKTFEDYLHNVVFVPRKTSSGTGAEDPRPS
UniProt P06213, 763-1382 limits assumed, species assumed: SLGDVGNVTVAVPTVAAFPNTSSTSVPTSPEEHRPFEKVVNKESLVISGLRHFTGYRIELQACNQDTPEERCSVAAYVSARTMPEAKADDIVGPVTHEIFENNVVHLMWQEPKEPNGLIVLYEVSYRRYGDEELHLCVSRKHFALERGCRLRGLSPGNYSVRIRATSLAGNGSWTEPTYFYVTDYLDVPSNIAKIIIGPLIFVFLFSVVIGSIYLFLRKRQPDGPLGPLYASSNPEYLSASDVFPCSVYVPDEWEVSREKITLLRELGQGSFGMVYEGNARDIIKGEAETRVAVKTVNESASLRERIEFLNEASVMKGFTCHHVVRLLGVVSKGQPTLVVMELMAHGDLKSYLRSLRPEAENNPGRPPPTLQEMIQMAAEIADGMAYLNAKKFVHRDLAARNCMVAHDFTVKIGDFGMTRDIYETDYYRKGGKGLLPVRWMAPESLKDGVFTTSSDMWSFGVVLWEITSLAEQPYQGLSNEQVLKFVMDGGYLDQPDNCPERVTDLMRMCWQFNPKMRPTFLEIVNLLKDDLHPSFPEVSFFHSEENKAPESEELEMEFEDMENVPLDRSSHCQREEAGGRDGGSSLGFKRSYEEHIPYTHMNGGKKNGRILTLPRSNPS

How the values were obtained:
SOD1 [1] = assay: GALS-001 Phase 2A trial, plasma SOD1 biomarker; type: in vivo, human; details: for SOD1 Plasma, GM604 Treated Arm (direction): @2 weeks (visit 6), p = 0.055 vs placebo
SOD1 [2] = assay: GALS-001 Phase 2A trial, CSF SOD1 biomarker; type: in vivo, human
TARDBP = assay: PCR array in SH-SY5Y cells, TARDBP (TDP-43); type: cell-based; details: for Fold change of TARDBP RNA, real-time quantitative PCR: vs control 0 HR = 1
CST3 = assay: PCR array in SH-SY5Y cells, CST3 (Cystatin C); type: cell-based; details: for Fold change of CST3 RNA, real-time quantitative PCR: vs control 0 HR = 1
IRS1 = assay: PCR array in SH-SY5Y cells, IRS1; type: cell-based; details: vs control 0 HR = 1
Cystatin C = assay: GALS-C compassionate use, CSF Cystatin C; type: in vivo, human
Tau = assay: GALS-C compassionate use, CSF Tau; type: in vivo, human
TDP-43 = assay: GALS-C compassionate use, plasma TDP-43; type: in vivo, human
insulin receptor = insulin receptor (Homo sapiens, UniProt P06213); details: U.S. Pat. No. 8,986,676; cited from earlier work
[3] = SH-SY5Y cells with GM604, 12 HR
[4] = SH-SY5Y cells with GM604, 24 HR
[5] = SH-SY5Y cells with GM604, 48 HR
[6] = Baseline, end stage ALS patient
[7] = Visit 6 (Week 2), after 6 doses

In the case of `C[C@H](NC(=O)[C@H](Cc1ccc(O)cc1)NC(=O)[C@H](CCCNC(=N)N)NC(=O)[C@H](CO)NC(=O)[C@@H](N)Cc1ccccc1)C(=O)N[C@@H](CCCNC(=N)N)C(=O)O` [GM604, FSRYAR] (H-FSRYAR-OH), the “SOD1 Plasma, GM604 Treated Arm (direction)” value (SOD1 [1]) is reported as “significant reduction trend; also recorded: near statistically significant reduced levels”, the “SOD1 Plasma, GM604 Treated Arm (direction)” value (SOD1 [1]; listed as GM6) is reported as “significantly reduced SOD1 protein levels in plasma” and the “Drop of plasma SOD1 level, patient 0101” value (SOD1 [1]; between visits 4 and 6 during drug treatment) is reported as 60%. For the same molecule, the “Plasma SOD1 level, patient 0101” value (SOD1 [1]; visit 4) was 360.52 ng/mL, the “Plasma SOD1 level, patient 0101” value (SOD1 [1]; visit 6) was 143.93 ng/mL and the “SOD1 CSF, GM604 Treated Arm (direction)” value (SOD1 [2]; @wk 6, placebo increase) was “↓ Reduced”. The “CSF SOD1, GALS-T (N = 8), mean” value (SOD1 [2]; Baseline, before treatment) was 186.6 ng/mL, the “CSF SOD1, GALS-T (N = 8), mean” value (SOD1 [2]; Visit 6 (Week 2)) was 153.17 ng/mL and the “CSF SOD1, GALS-T, Mean % Change V6 − BL” value (SOD1 [2]; Week 2 vs baseline, mean of per-subject changes) was −3.75%. The “CSF SOD1 level reduced, patient 0201” value (SOD1 [2]; at end of drug treatment, baseline four fold that of other patients) was 50%, the “CSF SOD1 level below basal level, patient 0201” value (SOD1 [2]; at the end of study) was 40% and the “CSF SOD1, GALS-T, direction and interpretation” value (SOD1 [2]; baseline high end of range) was “↓ = DM*”. For the same molecule, the “Slope for CSF SOD1” value (SOD1 [2]; through Week 6, placebo 15.225, not statistically significant) was −1.874, the “PCR data (SH-SY5Y), TDP-43 decrease” value (TARDBP; @12 hr thru 48 hr) was “↓2-3 fold” and the “Fold change of TARDBP RNA, real-time quantitative PCR” value (from here on “Fold change of TARDBP RNA”) (TARDBP; SH-SY5Y cells with GM604, 2 HR) was 0.83. The “Fold change of TARDBP RNA” value (TARDBP; SH-SY5Y cells with GM604, 4 HR) was 0.62, the “Fold change of TARDBP RNA” value (TARDBP; [3]) was 0.39 and the “Fold change of TARDBP RNA” value (TARDBP; [4]) was 0.52. The “Fold change of TARDBP RNA” value (TARDBP; [5]) was 0.48, the “PCR data (SH-SY5Y), Cystatin C increase” value (CST3; @ 12 hr) was “↑2fold@” and the “Fold change of CST3 RNA, real-time quantitative PCR” value (“Fold change of CST3 RNA” below) (CST3; SH-SY5Y cells with GM604, 2 HR) was 1.53. For the same molecule, the “Fold change of CST3 RNA” value (CST3; SH-SY5Y cells with GM604, 4 HR) was 1.84, the “Fold change of CST3 RNA” value (CST3; [3]) was 2.11 and the “Fold change of CST3 RNA” value (CST3; [4]) was 1.59. For the same molecule, the “Fold change of CST3 RNA” value (CST3; [5]) was 1.35, the “Fold change of IRS1 RNA, real-time quantitative PCR” value (“Fold change of IRS1 RNA” for short) (IRS1; SH-SY5Y cells with GM604, 2 HR) was 1.63 and the “Fold change of IRS1 RNA” value (IRS1; SH-SY5Y cells with GM604, 4 HR) was 1.95. For the same molecule, the “Fold change of IRS1 RNA” value (IRS1; [3]) was 2.34, the “Fold change of IRS1 RNA” value (IRS1; [4]) was 2.11 and the “Fold change of IRS1 RNA” value (IRS1; [5]) was 1.54. The “CSF Cystatin C, GALS-C (N = 1)” value (Cystatin C; [6]) was 1.97 µg/mL, the “CSF Cystatin C, GALS-C (N = 1)” value (Cystatin C; [7]) was 2.35 µg/mL and the “CSF Cystatin C, GALS-C, % Change V6 − BL” value (Cystatin C; Week 2 vs baseline) was 19% and 19.29%. The “CSF Cystatin C, GALS-C, direction and interpretation” value (Cystatin C; baseline below range) was “↑ = DM*”, the “CSF Total Tau, GALS-C (N = 1)” value (Tau; [6]) was 60.55 pg/mL and the “CSF Total Tau, GALS-C (N = 1)” value (Tau; [7]) was 63.33 pg/mL. The “CSF Total Tau, GALS-C, % Change V6 − BL” value (Tau; Week 2 vs baseline) was 4.59%, the “CSF Total Tau, GALS-C, direction and interpretation” value (Tau; baseline below range) was “↑ = DM*” and the “Plasma TDP-43, end stage patient” value (TDP-43; at the end of 6 doses) was 92.59 pg/mL. The “Plasma TDP-43, end stage patient” value (TDP-43; at the end of 12 weeks) was 52.53 pg/mL and ~50 pg/mL, the “Plasma TDP-43, end stage patient” value (TDP-43; baseline, normal range 0-50 pg/ml) was 144.54 pg/mL and 144 pg/mL and the “Binding to the insulin receptor and autophosphorylation” value (insulin receptor) was “binds to the insulin receptor and causes autophosphorylation of Tyr 1162/1163”.
